From patent publication US20080167246A1, “Ophthalmic and Contact Lens Solutions Containing Peptides as Preservative” (BioConcept Laboratories, priority 2003, published 2008)
At least one peptide structure holds a part that was inferred or is arguable (an end, a ring closure or a residue). No end group written: not given here.

Tests used:
Format in all cases: cell-based
[1] = system: Staphylococcus aureus (ATCC 6538); test: Disinfection Efficacy antimicrobial assay (ISO 14729), S. aureus
Description: (§1) Peptides were tested using a conventional Disinfection Efficacy antimicrobial assay (ISO 14729), commonly used in evaluating biocidal efficacy of preservatives for use in contact lens care solutions. Briefly, a known concentration of organisms are inoculated into the test solution, and allowed to incubate for a given amount of time, after which they are neutralized to inactivate the preservative. Samples are serially diluted and plated in duplicate onto petri plates onto which growth medium is poured. The plates are incubated at 35° C. (bacteria) or 25° C. (yeast and molds) for 48 hours. The average number of colony forming units is determined on countable plates (the dilution at which between 30 to 300 cfu/plate are observed, except when colonies are observed only on the −1 dilution plates). The log reduction resulting from exposure to the test solution is calculated based on the growth of positive controls plated simultaneously. Recovery controls, to confirm that the test solution is neutralized, and viability controls are also plated.
(§2) Method: The Disinfection Efficacy test was used with the following organisms: Staphylococcus aureus (ATCC 6538), Pseudomonas aeruginosa (ATCC 9027), Serratia marcesens (ATCC 13880), Candida albicans (ATCC 10231), and Fusarium solani (ATCC 36031). The peptides were diluted in water at a concentration of 100 ug/mL (adjusted for purity). Organism cultures were prepared to result in an inoculum concentration between 10^7 and 10^8 cfu/mL. The test solutions were inoculated for a 1 hour and a 3 hour exposure period, neutralized with DEB with 0.1% SLS added, and plated in duplicate.
(§3) Method: The Disinfection Efficacy test was used as in experiment 2 using Staphylococcus aureus and Pseudomonas aeruginosa. The peptides were diluted in water at concentrations of 100, 33.3, 10, 3.33, and 1 ug/mL. The test solutions were inoculated for 1 hour, neutralized, and plated in duplicate.

[2] = system: Pseudomonas aeruginosa (ATCC 9027); test: Disinfection Efficacy antimicrobial assay (ISO 14729), P. aeruginosa
Description: as §1, §2, §3

[3] = system: Serratia marcesens (ATCC 13880); test: Disinfection Efficacy antimicrobial assay (ISO 14729), S. marcescens; settings: Exp. 2; 100 ug/mL in water, 1 hour exposure
Description: as §1
(§4) Method: The Disinfection Efficacy test was used with the following organisms: Staphylococcus aureus (ATCC 6538), Pseudomonas aeruginosa (ATCC 9027), Serratia marcesens (ATCC 13880), Candida albicans (ATCC 10231), and Fusarium solani (ATCC 36031). The peptides were diluted in water at a concentration of 100 ug/mL (adjusted for purity). […]

[4] = system: Candida albicans (ATCC 10231); test: Disinfection Efficacy antimicrobial assay (ISO 14729), C. albicans; settings: Exp. 2; 100 ug/mL in water, 1 hour exposure
Description: as §1
Method: Candida albicans (ATCC 10231) stock cultures were incubated and prepared to result in cell suspensions containing between 10^7 and 10^8 cfu/mL. […]

[5] = system: Fusarium solani (ATCC 36031); test: Disinfection Efficacy antimicrobial assay (ISO 14729), F. solani; settings: Exp. 2; 100 ug/mL in water, 1 hour exposure
Description: as §1, §4

[6] = system: Staphylococcus aureus, Pseudomonas aeruginosa, Serratia marcesens, Candida albicans, Fusarium solani; test: Disinfection Efficacy test, all 5 organisms of Experiment 2; settings: Exp. 2; 100 ug/mL, one hour exposure
Description: as §1, §4

[7] = Exp. 2, 100 ug/mL in water, 1 hour exposure
[8] = Exp. 3, 1 hour, tested at 100, 33.3, 10, 3.33 and 1 ug/mL
[9] = Exp. 3, Conc. 3.33 μg/mL, T = 1 hr
[10] = Exp. 3, Conc. 10 μg/mL, T = 1 hr
[11] = Exp. 3, Conc. 33 μg/mL, T = 1 hr
[12] = Exp. 3, Conc. 100 μg/mL, T = 1 hr

Sequence: FKLRAKIKVRLRAKIKL [D4E1]
- average cfu/mL [1, 7]: 0.00E+00 cfu/mL
- concentration achieving complete kill of S. aureus [1, 8]: 1 µg/mL
- average cfu/mL ([1]; Exp. 3, Conc. 1 μg/mL, T = 1 hr): 5.00E+00 cfu/mL
- average cfu/mL [1, 9]: 0.00E+00 cfu/mL
- average cfu/mL [1, 10]: 0.00E+00 cfu/mL
- average cfu/mL [1, 11]: 0.00E+00 cfu/mL
- average cfu/mL [1, 12]: 0.00E+00 cfu/mL
- average cfu/mL [2, 7]: 0.00E+00 cfu/mL
- lowest concentration resulting in complete kill of P. aeruginosa [2, 8]: 1 µg/mL
- average cfu/mL [2, 9]: 0.00E+00 cfu/mL
- average cfu/mL [2, 10]: 0.00E+00 cfu/mL
- average cfu/mL [2, 11]: 5.00E+00 cfu/mL
- average cfu/mL [2, 12]: 0.00E+00 cfu/mL
- average cfu/mL [3]: 0.00E+00 cfu/mL
- average cfu/mL [4]: 0.00E+00 cfu/mL
- average cfu/mL [5]: 0.00E+00 cfu/mL
- kill of all 5 organisms (in words) [6]: complete kill
